Inconclusive means that the source gave no clear call. Such entries were picked first, then a sample of the others. Where the call is inconclusive, the potency comes from a doubtful curve fit. Activity calls are given as the source filed them. Calls come from the whole dose curve; as a rule, active = well fitted curve in the direction sought with a large enough effect; inconclusive = small, poorly fitted or top-dose-only effect, or another doubt; inactive = no such curve, though single readings can be large or run the other way.
experiment: Confirmation Concentration-Response Assay for Inhibitors of Tau Fibril Formation, Total Fluorescence Counterscreen for Fluorescence Polarization; conditions: Alexa594-tau K18 total fluorescence counterscreen, interference, tau K18 with P301L mutation; series mostly up to 100 µM; fluorescence change, negative = quenching: at the top concentration
Excerpt: NIH Molecular Libraries Probe Production Network [MLPCN] NIH Chemical Genomics Center [NCGC] MLPCN Grant: X01 MH083262-01 Assay Provider: Carlo Ballatore, University of Pennsylvania NCGC Assay Overview: The microtubule-associated protein tau is an abundant protein in the axons of neurons that stabilizes microtubules. With its ability to modulate microtubule dynamics, tau contributes directly or indirectly, to key structural and regulatory cellular functions. Particularly important is the influence tau exerts on axonal transport, which allows signaling molecules, trophic factors and other essential cellular constituents to travel along the axons. Under pathological conditions, tau becomes sequestered into insoluble aggregates called neurofibrillary tangles. This phenomenon is believed to have pathological consequences by promoting axonal transport deficits that ultimately lead to synaptic dysfunction and neuronal loss. To identify inhibitors of tau aggregation, a heparin-induced tau fibril formation assay was used that employed a recombinantly expressed fragment of tau, K18 (Q242-E372), bearing a P301L mutation (Gustke et al. 1994; Hong et al. 1998). […] Total fluorescence (555 nm excitation and 632 nm emission) was measured to identify fluorescent or absorbent compounds at this wavelength. Such compounds may be artifacts that interfere with the Alexa 594 Tau fluorescence polarization assay. Gustke, N., B. Trinczek, et al. (1994). "Domains of tau protein and interactions with microtubules." Biochemistry 33(32): 9511-22. Hong, M., V. Zhukareva, et al. (1998). "Mutation-specific functional impairments in distinct tau isoforms of hereditary FTDP-17." Science 282(5395): 1914-7. Li, W. and V. M. Lee (2006). "Characterization of two VQIXXK motifs for tau fibrillization in vitro." Biochemistry 45(51): 15692-701. von Bergen, M., S. Barghorn, et al. (2001). "Mutations of tau protein in frontotemporal dementia promote aggregation of paired helical filaments by enhancing local beta-structure." J Biol Chem 276(51): 48165-74.
For screening, 2 uL/well human K18 P301L (15 uM unlabeled and 0.24 uM Alexa 594-labeled tau final concentrations) in reagent buffer (100 mM sodium acetate pH 7) was dispensed into black solid 1536-well plates (Grenier) using a solenoid-based dispenser. Following transfer of 23 nL compound or DMSO vehicle by a pin tool, 2 uL/well heparin (20 uM final concentration) in reagent buffer was added and the plate centrifuged 15 s at 1000 RPM. Plates were incubated 6 hr at 37 C and then 1 uL/well ThT (30 uM final concentration) was added. After a 1 hr ambient incubation, the plates were read by an Envision (Perkin Elmer) to monitor Alexa 594 FP (555 nm excitation and 632 nm emission). Keywords: NIH Roadmap, MLPCN, MLI, MLSMR, NCGC, qHTS, tau, tauopathies, Alzheimer's disease, fibril, neurodegeneration, aggregation

Compound | Potency | fluorescence change, negative = quenching
Cc1ccc(SCc2cc(=O)n(C)[nH]2)cc1 | inconclusive: 15.8 µM [falling, partial curve, poor fit] | 
CCc1ccc(S(=O)(=O)Nc2cc(SCC(=O)O)c(O)c3ccccc23)cc1 | inconclusive: 20 µM [falling, single point] | 
CCOC(=O)c1ccc(S(=O)(=O)Nc2nc3cc(S(=O)(=O)NC4=NCCCCC4)ccc3s2)cc1 |  | inactive: 2.36%
S=C1Cc2ccccc2N1 | inconclusive: 3.55 µM [quencher, full curve] | 
CCOC(=O)c1nn(-c2ccc(F)cc2)c(=O)c2c(N)scc12 | inconclusive: 12.6 µM [quencher, partial curve] | 
CC(=O)Nc1nc(C)c(-c2csc(Nc3ccc(O)cc3)n2)s1 | inconclusive: 39.8 µM [falling, partial curve, poor fit] | 
COc1cccc(CNc2cccc3cccnc23)c1O | inconclusive: 31.6 µM [falling, full curve, poor fit] | 
Nc1cc(-c2ccccc2)c[nH]c1=O | inconclusive: 20 µM [falling, partial curve, poor fit] | 
CCn1nccc1C(=O)Nc1cc(Cl)cc(Cl)c1 | inconclusive: 100 µM [falling, partial curve, poor fit] | 
O=C(NCCCO)Nc1ccc2nc(-c3ccco3)c(-c3ccco3)nc2c1 | active: 3.16 µM [quencher] | 
CN(c1ccccc1)S(=O)(=O)c1nnc(NC(=O)C2CCCCC2)s1 |  | inactive: -17.2%
Cc1nc2ccccc2oc1=O |  | inactive: 11.2%
CCN(CC)c1ccc2oc(=O)c(C)nc2c1 | inconclusive: 4.47 µM [falling, full curve, poor fit] | 
Cc1ccc(N2C(=O)SC(Cc3ccccc3)C2=O)cc1 (stereo not given) |  | inactive: 14.2%
Nc1scc2c(C(=O)NCc3ccccc3)nn(-c3ccccc3)c(=O)c12 | inconclusive: 7.94 µM [quencher, full curve] | 
Nc1ccc(-c2ccc3ccccc3n2)cc1 | inconclusive: 79.4 µM [falling, partial curve, poor fit] | 
O=C(Nc1ccc(-c2nc3ccccc3o2)cc1)c1ccc(N2CCOCC2)c([N+](=O)[O-])c1 | inconclusive: 7.94 µM [quencher, partial curve] | 
O=C(Nc1ccc(OC(F)(F)F)cc1)Nc1cccc([N+](=O)[O-])c1 | inconclusive: 3.55 µM [falling, full curve, poor fit] | 
COC(=O)c1c(NC(=O)CCCOc2ccc(C)cc2)sc2c1C(C(=O)OC)CC2 (stereo not given) |  | inactive: -0.983%
CCN(CC)S(=O)(=O)c1cccc(NC(=O)Nc2cccc(C(F)(F)F)c2)c1 | inconclusive: 1.12 µM [quencher, full curve] | 

Complete entries as entered above:
CC(=O)Nc1nc(C)c(-c2csc(Nc3ccc(O)cc3)n2)s1 is listed as Potency: inconclusive: 39.8 µM [falling, partial curve, poor fit]
CN(c1ccccc1)S(=O)(=O)c1nnc(NC(=O)C2CCCCC2)s1 is listed as fluorescence change, negative = quenching: inactive: -17.2%

Going on with the list.

Compound | Potency | fluorescence change, negative = quenching
COc1cccc(/C=C2/SC(=S)N(CC(=O)Nc3nccs3)C2=O)c1 |  | inactive: -19.7% [at 57.1 µM]
CCOC(=O)c1c(N)sc2c1CCOC2 |  | inactive: 17.4% [at 57.1 µM]
CCOC(=O)c1nn(-c2cccc(C(F)(F)F)c2)c(=O)c2c(N)scc12 | active: 1.58 µM [quencher] | 
COc1ccc2oc(-c3ccc(NC(=O)c4ccc(N5CCOCC5)c([N+](=O)[O-])c4)cc3)nc2c1 |  | inactive: -3.8%
Oc1ccccc1CNc1cccc2cccnc12 | inconclusive: 44.7 µM [falling, partial curve, poor fit] | 
COc1ccc(Nc2nc(-c3sc(NC(C)=O)nc3C)cs2)cc1 | inconclusive: 12.6 µM [falling, single point] | 
O=S(=O)(c1ccc2nc(-c3ccco3)c(-c3ccco3)nc2c1)N1CCOCC1 | inconclusive: 5.01 µM [quencher, full curve] | 
CCOC(=O)c1nn(-c2ccc(OC)cc2)c(=O)c2c(N)scc12 | inconclusive: 5.62 µM [quencher, partial curve] | 
O=C(O)CSc1cc(NS(=O)(=O)c2cccc([N+](=O)[O-])c2)c2ccccc2c1O | inconclusive: 28.2 µM [falling, partial curve, poor fit] | 
CCn1c(CSc2nccn2C)nc2cc(C(=O)O)ccc21 |  | inactive: 35.7%
COc1ccc(Cl)cc1NC(=O)c1c(NCc2sccc2C)sc2c1CCCC2 | inconclusive: 2.51 µM [quencher, full curve] | 
CN1CCc2sc(NC(=O)Cc3ccccc3)c(C(=O)Nc3ccc(Cl)cc3)c2C1 | inconclusive: 31.6 µM [quencher, partial curve] | 
CCOC(=O)c1nn(-c2ccc(Cl)cc2)c(=O)c2c(N)scc12 | inconclusive: 6.31 µM [quencher, full curve] | 
Cn1[nH]c(CSc2ccc(Cl)cc2)cc1=O | inconclusive: 11.2 µM [falling, partial curve, poor fit] | 
COc1ccc(S(=O)(=O)Nc2cc(Sc3ncn[nH]3)c(O)c3ccccc23)cc1 | inconclusive: 7.08 µM [quencher, partial curve] | 
CC(/C=C1\SC(=S)N(NC(=O)c2cccc(O)c2)C1=O)=C\c1ccccc1 | inconclusive: 2.51 µM [quencher, full curve] | 
CC(C)Cn1c(O)c(/C=C2\C=NN=C2c2ccccc2)sc1=S | inconclusive: 1.41 µM [falling, full curve, poor fit] | 
NC[C@H](O)c1ccc(O)c(O)c1 | inconclusive: 6.31 µM [quencher, full curve] | 
CC(=O)Nc1ccc(C2=NNC(=Nc3ccc(S(=O)(=O)N4CCOCC4)cc3)SC2)cc1 | inconclusive: 2.82 µM [quencher, full curve] | 
CC(=O)Nc1nc(C)c(-c2csc(Nc3cccc([N+](=O)[O-])c3)n2)s1 | inconclusive: 22.4 µM [falling, full curve, poor fit] | 
